This experiment deals with T1, LIF receptor (human (endogenous in LX2)) (UniProt P42702).
T1 sequence: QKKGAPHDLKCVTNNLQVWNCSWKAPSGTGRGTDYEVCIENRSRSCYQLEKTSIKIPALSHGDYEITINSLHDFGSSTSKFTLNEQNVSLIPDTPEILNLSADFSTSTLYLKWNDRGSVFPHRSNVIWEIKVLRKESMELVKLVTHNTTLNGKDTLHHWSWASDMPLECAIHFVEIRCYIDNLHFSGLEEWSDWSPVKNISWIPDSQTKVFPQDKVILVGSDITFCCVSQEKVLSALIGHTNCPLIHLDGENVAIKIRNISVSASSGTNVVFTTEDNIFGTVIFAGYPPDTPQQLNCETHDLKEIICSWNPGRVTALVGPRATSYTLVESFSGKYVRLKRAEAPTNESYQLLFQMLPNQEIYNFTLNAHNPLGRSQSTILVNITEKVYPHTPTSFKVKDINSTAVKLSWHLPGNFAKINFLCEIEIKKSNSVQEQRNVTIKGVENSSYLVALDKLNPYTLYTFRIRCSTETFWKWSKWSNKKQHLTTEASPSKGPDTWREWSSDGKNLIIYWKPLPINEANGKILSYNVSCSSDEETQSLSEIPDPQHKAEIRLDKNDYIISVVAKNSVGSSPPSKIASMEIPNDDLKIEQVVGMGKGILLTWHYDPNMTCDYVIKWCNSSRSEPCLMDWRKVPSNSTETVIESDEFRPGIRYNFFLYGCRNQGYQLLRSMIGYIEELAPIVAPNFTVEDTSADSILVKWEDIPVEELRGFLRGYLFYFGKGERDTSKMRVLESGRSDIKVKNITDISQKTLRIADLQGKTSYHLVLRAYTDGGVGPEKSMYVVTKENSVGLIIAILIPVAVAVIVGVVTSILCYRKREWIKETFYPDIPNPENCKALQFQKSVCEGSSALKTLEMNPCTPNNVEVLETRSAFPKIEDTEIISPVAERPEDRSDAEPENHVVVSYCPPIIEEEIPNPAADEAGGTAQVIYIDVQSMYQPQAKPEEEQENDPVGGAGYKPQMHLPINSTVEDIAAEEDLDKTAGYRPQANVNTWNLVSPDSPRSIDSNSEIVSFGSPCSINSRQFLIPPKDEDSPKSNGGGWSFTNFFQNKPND
Nature of the experiment: proximity ligation; Duolink PLA in LX2 cells (pre-treated with calcipotriol), fixed in 4% paraformaldehyde and permeabilised; primary antibodies to LIFR and sortilin; signal only when the two are within 40 nm; cells in DMEM or stimulated with LIF, FL-PGRN, LIF + FL-PGRN, Trunc-PGRN or LIF + Trunc-PGRN.

Chains of the proteins cited; added tags and fusions are not shown. Residues count along the entry.
UniProt Q99523, residues 78-831: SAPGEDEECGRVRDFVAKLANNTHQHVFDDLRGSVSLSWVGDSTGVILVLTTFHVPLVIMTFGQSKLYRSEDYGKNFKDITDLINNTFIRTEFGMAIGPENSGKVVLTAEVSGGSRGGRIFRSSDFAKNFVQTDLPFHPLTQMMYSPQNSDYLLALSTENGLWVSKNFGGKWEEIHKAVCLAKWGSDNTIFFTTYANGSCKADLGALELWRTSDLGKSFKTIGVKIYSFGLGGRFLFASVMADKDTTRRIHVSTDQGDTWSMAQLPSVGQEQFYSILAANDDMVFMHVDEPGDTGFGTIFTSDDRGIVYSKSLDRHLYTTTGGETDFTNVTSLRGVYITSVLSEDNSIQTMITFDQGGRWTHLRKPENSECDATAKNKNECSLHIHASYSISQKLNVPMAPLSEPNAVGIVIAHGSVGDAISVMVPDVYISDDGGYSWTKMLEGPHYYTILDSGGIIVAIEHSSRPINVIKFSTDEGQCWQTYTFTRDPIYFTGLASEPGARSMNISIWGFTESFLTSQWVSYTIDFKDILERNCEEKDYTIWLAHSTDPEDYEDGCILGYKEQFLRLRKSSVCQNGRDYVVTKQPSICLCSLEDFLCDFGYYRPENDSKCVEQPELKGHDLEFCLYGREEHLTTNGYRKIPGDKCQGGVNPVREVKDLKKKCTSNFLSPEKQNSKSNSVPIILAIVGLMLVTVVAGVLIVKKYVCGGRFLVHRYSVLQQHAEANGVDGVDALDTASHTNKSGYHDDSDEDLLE

These are yes or no findings as the source states them, for the method shown. Binding seen in cells or lysates may run through a third protein. Some results given as binding are weak or reduced against the parent protein; the word gives no strength.

As to “Sortilin (from UniProt Q99523 78-831) (receptor)”, the binding result is given as “binds”.

For the origin of these results see paper PMC11055860.
